Results are given in words; binding and its absence hold for the method and conditions named. Some results given as binding are weak or reduced against the parent protein; the word gives no strength. Where a sequence is shown, tags or fusion partners need not be part of it. Each block holds one binder with its values, some of them ahead of it.
Legend:
[1] = molecular target: T1, HIS-3C-Nse6 (S. cerevisiae) (UniProt P40026); experiment: co-purification of co-expressed proteins; N1–N3–N4 and N5-N6 sub-complexes co-expressed in Sf9; 'standard chromatographic techniques'; colloidal blue SDS-PAGE and western blot of the tags
T1 sequence: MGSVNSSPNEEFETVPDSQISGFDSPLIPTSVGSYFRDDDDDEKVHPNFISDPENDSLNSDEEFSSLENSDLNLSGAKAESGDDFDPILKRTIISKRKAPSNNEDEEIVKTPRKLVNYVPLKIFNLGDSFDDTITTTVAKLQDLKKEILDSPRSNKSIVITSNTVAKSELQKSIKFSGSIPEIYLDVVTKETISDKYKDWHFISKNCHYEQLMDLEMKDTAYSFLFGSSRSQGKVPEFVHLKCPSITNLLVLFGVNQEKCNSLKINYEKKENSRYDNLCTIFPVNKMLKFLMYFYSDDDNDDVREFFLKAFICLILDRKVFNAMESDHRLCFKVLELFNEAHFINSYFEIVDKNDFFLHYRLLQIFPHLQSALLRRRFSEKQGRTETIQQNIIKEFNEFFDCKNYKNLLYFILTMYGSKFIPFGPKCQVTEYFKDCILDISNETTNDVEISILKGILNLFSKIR

[2] = molecular target: T2, HIS-TEV-Nse1 (S. cerevisiae) (UniProt Q07913); experiment: as above
T2 sequence: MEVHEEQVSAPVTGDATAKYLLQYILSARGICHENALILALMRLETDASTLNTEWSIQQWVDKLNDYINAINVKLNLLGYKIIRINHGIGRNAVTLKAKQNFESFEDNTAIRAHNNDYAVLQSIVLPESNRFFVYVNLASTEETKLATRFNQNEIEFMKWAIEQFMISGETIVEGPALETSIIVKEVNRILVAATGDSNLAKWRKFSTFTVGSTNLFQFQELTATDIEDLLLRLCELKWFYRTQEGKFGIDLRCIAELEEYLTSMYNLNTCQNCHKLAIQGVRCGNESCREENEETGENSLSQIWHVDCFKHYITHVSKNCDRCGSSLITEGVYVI

[3] = molecular target: T3, Smc5-FLAG (S. cerevisiae) (UniProt Q08204); experiment: co-purification of co-expressed proteins; Smc5-FLAG, Smc6-AVI-HIS and HA-Nse2, without or with HIS-TEV-Nse1, Nse3 and Nse4-HALO-Myc, co-expressed in Sf9 from one baculovirus; lysate on CoHIS resin, then ANTI-FLAG M2 gel (eluted with 3x FLAG peptide), heparin, Superose 6 in 20 mM HEPES pH 7.5, 150 mM NaCl, 0.5 mM TCEP; SDS-PAGE
T3 sequence: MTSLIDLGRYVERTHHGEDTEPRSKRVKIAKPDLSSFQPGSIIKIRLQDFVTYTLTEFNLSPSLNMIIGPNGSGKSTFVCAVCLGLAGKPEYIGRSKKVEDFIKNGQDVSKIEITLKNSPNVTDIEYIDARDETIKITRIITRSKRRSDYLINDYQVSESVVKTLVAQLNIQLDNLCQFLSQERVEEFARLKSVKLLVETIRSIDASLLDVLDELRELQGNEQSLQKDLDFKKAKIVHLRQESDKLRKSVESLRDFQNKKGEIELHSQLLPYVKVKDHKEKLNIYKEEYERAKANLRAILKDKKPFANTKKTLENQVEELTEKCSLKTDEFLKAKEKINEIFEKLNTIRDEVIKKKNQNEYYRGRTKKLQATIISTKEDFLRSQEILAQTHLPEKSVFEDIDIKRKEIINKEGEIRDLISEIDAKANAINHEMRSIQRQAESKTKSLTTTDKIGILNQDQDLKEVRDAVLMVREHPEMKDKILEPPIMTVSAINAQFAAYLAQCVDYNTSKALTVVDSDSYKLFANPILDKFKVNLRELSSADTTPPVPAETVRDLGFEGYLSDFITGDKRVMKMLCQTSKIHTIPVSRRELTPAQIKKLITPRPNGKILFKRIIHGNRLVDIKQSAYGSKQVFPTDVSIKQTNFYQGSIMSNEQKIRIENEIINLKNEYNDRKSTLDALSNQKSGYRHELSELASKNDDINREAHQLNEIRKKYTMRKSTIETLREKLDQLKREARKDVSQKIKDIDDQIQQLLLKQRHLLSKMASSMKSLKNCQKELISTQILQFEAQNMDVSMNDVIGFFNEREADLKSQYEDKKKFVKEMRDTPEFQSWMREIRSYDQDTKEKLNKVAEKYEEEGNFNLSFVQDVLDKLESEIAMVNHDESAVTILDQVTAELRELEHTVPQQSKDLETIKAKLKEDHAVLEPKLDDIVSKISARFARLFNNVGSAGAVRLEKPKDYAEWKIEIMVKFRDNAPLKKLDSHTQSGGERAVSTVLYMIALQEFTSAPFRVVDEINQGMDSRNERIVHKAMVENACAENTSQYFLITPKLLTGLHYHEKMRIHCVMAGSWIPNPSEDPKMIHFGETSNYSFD

[4] = molecular target: T3, Smc5-FLAG (S. cerevisiae); experiment: negative stain electron microscopy; purified complexes cross-linked with glutaraldehyde or BS3 and run on Superose 6 in buffer D; uranyl acetate stain; 2D classes, 3D reconstruction and focussed refinement in RELION; both purified

B3: HA-Nse2 (protein, UniProt P38632 1-267)
chain: MALNDNPIPKSVPLHPKSGKYFHNLHARDLSNIYQQCYKQIDETINQLVDSTSPSTIGIEEQVADITSTYKLLSTYESESNSFDEHIKDLKKNFKQSSDACPQIDLSTWDKYRTGELTAPKLSELYLNMPTPEPATMVNNTDTLKILKVLPYIWNDPTCVIPDLQNPADEDDLQIEGGKIELTCPITCKPYEAPLISRKCNHVFDRDGIQNYLQGYTTRDCPQAACSQVVSMRDFVRDPIMELRCKIAKMKESQEQDKRSSQAIDVL
- binding [4]: binds
- binding [3]: binds

B4: HIS-TEV-Nse1 (protein, UniProt Q07913 1-336)
chain: T2 sequence
- binding [3]: binds

Further lines, results first:

- binding [1]: binds
B1: Nse5-C.tag (protein, UniProt Q03718 1-556)
chain: MDGALINSVLYVSPRNGAHYFVELTEKHLLAFEMLNSMCLLENYDHVLLFLECQFGKSHNLAVIPFDIILVLFTLSTLSEYYKEPILRANDPYNTSRETLSRRALKLLQKYLAILKEFDSEQYNLYDLELLRCQFFLAIDTLTPKKQKWGFDRFRRTKSESGVTYRQNASVDPELDQAKTFKNPYRSYISCLEQRNTILGNRLLNLKLNEPGEFINMILWTLSNSLQESTPLFLSSHEIWMPLLEILIDLFSCRQDYFIQHEVAQNVSKSLFVQRLSESPLAVFFESLNTRNFANRFSEYVFLNCDYKLPSDNYATPVHPVYNGENTIVDTYIPTIKCSPLYKSQKSLALRRKLIGSCFKLLLRVPDGHRLITPRIVADDVIQGISRTLASFNDILQFKKFFMTENLSQESYFIPLLAEGTLSEILKDTQECVVILTLVENLSDGVSFCNEVIGLVKSKCFAFTEQCSQASYEEAVLNIEKCDVCLLVLLRYLLHLIGTEAILDAKEQLEMLHAIEKNDSGRRQWAKALNLGNDPPLLYPIVSQMFGVHDKSVIIE

- binding [2]: binds
- binding [3]: binds
B2: Nse3 (protein, UniProt Q05541 1-303)
chain: MSSIDNDSDVDLTEDLAVAKIVKENPVARKMVRYILSRGESQNSIITRNKLQSVIHEAAREENIAKPSFSKMFMDINAILYNVYGFELQGLPSKNNMNAGGNGSNSNTNKSMPEPLGHRAQKFILLNNVPHSKNFDDFKILQSAHTYEELIVTGEYIGDDIASGTSNTLESKLSTDRDLVYKGVLSVILCIVFFSKNNILHQELIKFLETFGIPSDGSKIAILNITIEDLIKSLEKREYIVRLEEKSDTDGEVISYRIGRRTQAELGLESLEKLVQEIMGLEKEQTKSLHDDIIKSIGDSYSI

- binding [2]: binds
- binding [3]: binds
B5: Nse4-HALO-Myc (protein, UniProt P43124 1-402)
chain: MSSTVISRKRRNSTVTEPDSSGETRKQKKSRSDEKSSSSKDGDPQLEFKVLQGYRDLESEMHKGRAQVTRTGDIGVAMDNLNAVDSLFNKVIGIKNNGLFAHDARAMVSISELAQISVRNLKFDDSRSMVNLENIVNSLKRYMLKEHFKLNNIAENRNDLTLAADEQSAADQQEESDGDIDRTPDDNHTDKATSSFKATSMRHSYLQQFSHYNEFSQFNWFRIGALYNTISKNAPITDHLMGPLSIEKKPRVLTQRRRNNDQVGEKITAEKITQHSLNSTQQETTPEQVKKCFKKLSKKLGPEGSINLFKFIIDPNSFSRSIENLFYTSFLIKEGKLLMEHDEEGLPTIKIKQSISHTDSRSKEIERQRRRAAHQNHIIFQMDMPTWRKLIKKYNITSPFLD

— article PMC8096239, “Nse5/6 is a negative regulator of the ATPase activity of the Smc5/6 complex”
